According to paper PMC9580158:
Results are given in words; binding and its absence hold for the method and conditions named. In cells and extracts the contact can be indirect. Some entries that bind do so weakly or less than the wild type. For part of these data: Sequences can lack the tags named with a protein.

The chains behind the UniProt entries cited, without tags or fusion partners. Residues count along the entry.
UniProt P35869, residues 11-848: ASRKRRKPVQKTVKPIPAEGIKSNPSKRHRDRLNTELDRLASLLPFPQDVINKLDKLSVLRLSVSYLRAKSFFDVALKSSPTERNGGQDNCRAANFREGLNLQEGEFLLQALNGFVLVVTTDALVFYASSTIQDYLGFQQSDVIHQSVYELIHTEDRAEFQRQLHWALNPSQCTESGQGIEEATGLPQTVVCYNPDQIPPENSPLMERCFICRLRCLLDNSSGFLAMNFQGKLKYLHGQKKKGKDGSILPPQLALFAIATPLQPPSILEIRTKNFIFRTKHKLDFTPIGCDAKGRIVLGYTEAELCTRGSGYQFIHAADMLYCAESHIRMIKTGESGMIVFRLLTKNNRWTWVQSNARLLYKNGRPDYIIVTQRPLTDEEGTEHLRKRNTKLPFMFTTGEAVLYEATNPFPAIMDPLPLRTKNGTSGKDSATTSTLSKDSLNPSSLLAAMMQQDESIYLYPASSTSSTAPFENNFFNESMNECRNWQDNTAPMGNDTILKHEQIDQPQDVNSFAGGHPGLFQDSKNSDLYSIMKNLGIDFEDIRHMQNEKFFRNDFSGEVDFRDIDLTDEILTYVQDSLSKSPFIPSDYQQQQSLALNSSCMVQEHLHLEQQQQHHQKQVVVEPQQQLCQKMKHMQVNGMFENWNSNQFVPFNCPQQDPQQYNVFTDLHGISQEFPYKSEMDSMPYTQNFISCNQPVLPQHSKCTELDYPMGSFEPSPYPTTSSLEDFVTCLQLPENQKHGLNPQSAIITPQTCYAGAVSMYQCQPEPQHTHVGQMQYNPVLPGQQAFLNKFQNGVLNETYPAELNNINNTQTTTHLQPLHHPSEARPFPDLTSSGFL

How the values were obtained:
[1] = molecular target: T1, Flag-tagged NUPR1 (nuclear protein 1) (UniProt O60356); experiment: co-IP; anti-Flag (control: IgG) on lysates of MHCC-97H/MHCC-97L ectopically expressing Flag-tagged NUPR1, RIPA lysis buffer, protein A/G agarose, western blot for Flag-NUPR1 and AhR
T1 sequence: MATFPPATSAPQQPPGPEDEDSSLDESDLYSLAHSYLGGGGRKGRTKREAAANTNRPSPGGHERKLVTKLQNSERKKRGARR

[2] = molecular target: aryl hydrocarbon receptor (AhR) (human (endogenous in MHCC-97H, MHCC-97L, QGY-7701, Hep3B)) (UniProt P35869); experiment: co-IP; reciprocal: anti-AhR (control: IgG) on cell lysates, RIPA lysis buffer, protein A/G agarose, western blot for NUPR1 and AhR
[3] = molecular target: aryl hydrocarbon receptor (AhR) (human (endogenous in MHCC-97H, MHCC-97L, QGY-7701, Hep3B)) (UniProt P35869); experiment: co-IP; endogenous proteins: anti-AhR on lysates of QGY-7701 and Hep3B cells, RIPA lysis buffer, protein A/G agarose, western blot

“aryl hydrocarbon receptor (AhR) (from UniProt P35869 11-848)” was tested, and the binding [1] was “binds”.

B1: Flag-tagged NUPR1 (nuclear protein 1) (protein, UniProt O60356 1-82)
chain: T1 sequence
For B1, the binding [2] was “binds”.

B2: NUPR1 (nuclear protein 1), endogenous (protein, UniProt O60356 1-82)
chain: T1 sequence
For B2, the binding [3] was “binds”.
